# Measurements: PubChem BioAssay AID1345085 (National Center for Advancing Translational Sciences (NCATS), 2018)
# The inconclusive results got no clear call from the source; some entries with a clear call stand among them for comparison. A potency beside an inconclusive call is a rough fit, not a confirmed value. Activity calls are given as the source filed them. Calls come from the whole dose curve; as a rule, active = well fitted cell-killing curve with a large enough effect; inconclusive = small, poorly fitted or top-dose-only effect, or effect the other way; inactive = no such curve, though single readings can be large or run the other way.
# Test system: CAOV3
# Assay: Confirmatory qHTS for gynecologic anti-cancer compounds from libraries of approved drugs and bioactive compounds; note: nearly all actives have a fitted effect of over 55% in size
# Settings: gynecologic cancer cell panel viability, ATPlite luminescence, 48 h; series mostly up to 57.6 µM
# How it was run: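 Cells (1,000/well) plated 16 h, then exposed 48 h at 37 °C to 11 concentrations (1:3) from 57.5 uM to 0.977 nM. Viability by ATPlite luminescence after 15 min; IC50 derived, with HEK 293T used for selectivity index.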
# Potency is the fitted concentration of half-maximal effect.
row,Structure (SMILES),Potency
1,Cc1cnc(Nc2ccc(F)cc2Cl)nc1-c1c[nH]c(C(=O)NC(CO)c2cccc(Cl)c2)c1 (stereo not drawn),"inconclusive: 24.3 µM [cytotoxic, partial curve, poor fit]"
2,O=C(O)c1ccc(Nc2ncc3c(n2)-c2ccc(Cl)cc2C(c2c(F)cccc2F)=NC3)cc1,"inconclusive: 4.85 µM [cytotoxic, full curve]"
3,CNC(=O)c1ccccc1Nc1nc(Nc2ccc(N3CCOCC3)cc2OC)ncc1Cl,active: 1.37 µM
4,N=C(N)c1ccc(OCCCCCOc2ccc(C(=N)N)cc2)cc1,"inconclusive: 48.5 µM [cytotoxic, single point]"
5,O=c1[nH]c(=O)n([C@H]2C[C@H](O)[C@@H](CO)O2)cc1C(F)(F)F,"inconclusive: 43.2 µM [cytotoxic, partial curve, poor fit]"
6,CC(C)(C(=O)NCC(F)(F)C(F)(F)F)C(=O)NC1C(=O)Nc2ccccc2-c2ccccc21 (stereo not drawn),"inconclusive: 8.63 µM [cytotoxic, partial curve]"
7,CCCCN(CCCC)CC(O)c1cc(Cl)cc2c1-c1ccc(Cl)cc1/C2=C/c1ccc(Cl)cc1 (stereo not drawn),inactive
8,O=C1Cc2cc(CCN3CCN(c4nsc5ccccc45)CC3)c(Cl)cc2N1,"inconclusive: 34.3 µM [cytotoxic, single point]"
9,CCN(CC)CCCC(C)Nc1c2ccc(Cl)cc2nc2ccc(OC)cc12 (stereo not drawn),"inconclusive: 43.2 µM [cytotoxic, single point]"
10,CC[C@]1(O)C[C@H]2CN(CCc3c([nH]c4ccccc34)[C@@](C(=O)OC)(c3cc4c(cc3OC)N(C=O)[C@H]3[C@@](O)(C(=O)OC)[C@H](OC(C)=O)[C@]5(CC)C=CCN6CC[C@]43[C@@H]65)C2)C1,"inconclusive: 17.2 µM [cytotoxic, partial curve, poor fit]"
11,Cn1c(=O)c(F)c(Nc2ccc(I)cc2F)c2c(=O)n(CC(O)CO)cnc21 (stereo not drawn),"inconclusive: 21.7 µM [cytotoxic, partial curve]"
12,CN(c1nccc(=O)[nH]1)C1CCN(c2nc3ccccc3n2Cc2ccc(F)cc2)CC1,inactive
13,CN(C)c1ccc(-c2nc3ncc(Cl)c(N4CCN(CC(=O)Nc5nccs5)CC4)c3[nH]2)cc1,"inconclusive: 2.66 µM [cytotoxic, full curve]"
14,Cc1ccc2nc(N)[nH]c(=O)c2c1Sc1ccncc1,"inconclusive: 7.69 µM [cytotoxic, partial curve, poor fit]"
15,CN(C)C/C=C/C(=O)Nc1cc2c(Nc3ccc(F)c(Cl)c3)ncnc2cc1OC1CCOC1 (stereo not drawn),active: 10.9 µM
16,C#C[C@]1(O)CC[C@H]2[C@@H]3CCC4=CC(=O)CC[C@@H]4[C@H]3CC[C@@]21CC,inactive
17,Cc1nc(Nc2n[nH]c3c2CN(C(=O)NC(CN(C)C)c2ccccc2)C3(C)C)c2sccc2n1 (stereo not drawn),active: 0.306 µM
18,Nc1nccc(Oc2ccc(NC(=O)c3c[nH]cc(-c4ccc(F)cc4)c3=O)cc2F)c1Cl,"inconclusive: 3.06 µM [cytotoxic, full curve, poor fit]"

# Some of the entries above, reformatted:
row | Structure (SMILES) | Potency
7 | CCCCN(CCCC)CC(O)c1cc(Cl)cc2c1-c1ccc(Cl)cc1/C2=C/c1ccc(Cl)cc1 (stereo not drawn) | inactive
8 | O=C1Cc2cc(CCN3CCN(c4nsc5ccccc45)CC3)c(Cl)cc2N1 | inconclusive: 34.3 µM [cytotoxic, single point]
